The text below walks through data of publication PMC10374705.

Amino acid sequences for entries named in this document (tags omitted).
UniProt Q8R4B8: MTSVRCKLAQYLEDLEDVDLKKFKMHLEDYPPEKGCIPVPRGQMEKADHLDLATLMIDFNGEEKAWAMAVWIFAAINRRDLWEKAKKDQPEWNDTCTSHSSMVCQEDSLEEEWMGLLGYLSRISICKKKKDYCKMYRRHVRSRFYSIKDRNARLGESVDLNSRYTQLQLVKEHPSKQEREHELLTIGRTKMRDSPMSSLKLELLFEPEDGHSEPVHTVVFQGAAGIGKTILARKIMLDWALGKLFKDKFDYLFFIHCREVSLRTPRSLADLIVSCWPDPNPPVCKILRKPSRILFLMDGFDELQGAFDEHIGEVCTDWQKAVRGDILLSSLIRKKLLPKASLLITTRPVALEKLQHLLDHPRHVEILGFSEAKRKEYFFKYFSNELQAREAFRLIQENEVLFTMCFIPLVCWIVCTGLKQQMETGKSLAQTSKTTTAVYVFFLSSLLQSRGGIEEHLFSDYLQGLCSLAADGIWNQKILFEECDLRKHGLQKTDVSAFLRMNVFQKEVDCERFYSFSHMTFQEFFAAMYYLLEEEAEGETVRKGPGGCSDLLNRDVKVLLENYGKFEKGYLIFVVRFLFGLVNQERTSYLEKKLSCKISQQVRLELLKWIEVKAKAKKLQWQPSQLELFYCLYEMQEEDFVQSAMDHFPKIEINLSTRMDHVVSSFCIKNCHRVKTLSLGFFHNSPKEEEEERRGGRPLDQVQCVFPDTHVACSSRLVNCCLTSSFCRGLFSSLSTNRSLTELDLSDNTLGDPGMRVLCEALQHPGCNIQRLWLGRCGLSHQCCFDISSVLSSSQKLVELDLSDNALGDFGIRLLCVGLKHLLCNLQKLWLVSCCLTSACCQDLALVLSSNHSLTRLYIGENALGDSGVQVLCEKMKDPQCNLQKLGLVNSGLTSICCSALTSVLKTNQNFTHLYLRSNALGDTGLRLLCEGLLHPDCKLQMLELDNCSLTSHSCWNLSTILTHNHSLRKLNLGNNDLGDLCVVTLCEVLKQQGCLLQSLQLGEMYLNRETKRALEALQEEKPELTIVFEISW

These are yes or no findings as the source states them, for the method shown. Binding seen in cells or lysates may run through a third protein. Some results given as binding are weak or reduced against the parent protein; the word gives no strength.

The target of assay [1] is T1, NF-κB p50 subunit (mouse (endogenous in MASMCs)), P25799.
T1 chain: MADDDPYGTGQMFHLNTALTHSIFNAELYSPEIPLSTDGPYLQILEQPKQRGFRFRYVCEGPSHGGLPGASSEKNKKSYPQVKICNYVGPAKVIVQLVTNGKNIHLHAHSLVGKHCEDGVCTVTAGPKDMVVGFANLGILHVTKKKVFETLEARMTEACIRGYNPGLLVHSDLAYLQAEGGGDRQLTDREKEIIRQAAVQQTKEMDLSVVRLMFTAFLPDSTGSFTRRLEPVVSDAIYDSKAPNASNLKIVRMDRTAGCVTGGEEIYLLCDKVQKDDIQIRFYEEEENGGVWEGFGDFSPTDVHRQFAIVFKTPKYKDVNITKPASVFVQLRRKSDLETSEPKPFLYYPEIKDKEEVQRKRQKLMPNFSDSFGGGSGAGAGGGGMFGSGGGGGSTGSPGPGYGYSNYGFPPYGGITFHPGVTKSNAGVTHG
Put plainly: co-IP; anti-p50 on magnetic beads, incubated with lysate of VSMCs transfected with different concentrations of circACTA2-expressing plasmid; blot with anti-p65. The conditions noted are these: remark: other sources report otherwise.

In assay [2] the target is T2, apoptosis-associated speck-like protein (ASC) (mouse (endogenous in MASMCs)) (UniProt Q9EPB4).
T2 sequence: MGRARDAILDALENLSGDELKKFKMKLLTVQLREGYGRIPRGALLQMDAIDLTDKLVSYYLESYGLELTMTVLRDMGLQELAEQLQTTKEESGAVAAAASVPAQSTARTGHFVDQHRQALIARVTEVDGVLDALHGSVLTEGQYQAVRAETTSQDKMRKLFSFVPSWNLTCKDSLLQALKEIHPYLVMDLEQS
Put plainly: condition: only circACTA2 overexpression in the cells; co-IP; anti-ASC on magnetic beads, incubated with lysate of VSMCs overexpressing circACTA2 and treated with TNF-α (25 ng/ml) for 24 h; blots with anti-NLRP3, anti-Caspase-1.

For assay [3], the target named is T2, apoptosis-associated speck-like protein (ASC) (mouse (endogenous in MASMCs)). Put plainly: co-IP; anti-ASC or anti-NLRP3 on magnetic beads, incubated with VSMC lysate 30 min at room temperature; blots with anti-NLRP3, anti-Caspase-1, anti-ASC; cells transfected with pcDNA3.1, with or without TNF-α (25 ng/ml) for 24 h.
The target of assay [4] is Nucleotide-binding oligomerization domain-like receptor protein 3 (NLRP3) (mouse (endogenous in MASMCs)) (UniProt Q8R4B8). The description is as above.

B1: NF-κB p65 subunit, Q04207 1-549 (protein)
chain: MDDLFPLIFPSEPAQASGPYVEIIEQPKQRGMRFRYKCEGRSAGSIPGERSTDTTKTHPTIKINGYTGPGTVRISLVTKDPPHRPHPHELVGKDCRDGYYEADLCPDRSIHSFQNLGIQCVKKRDLEQAISQRIQTNNNPFHVPIEEQRGDYDLNAVRLCFQVTVRDPAGRPLLLTPVLSHPIFDNRAPNTAELKICRVNRNSGSCLGGDEIFLLCDKVQKEDIEVYFTGPGWEARGSFSQADVHRQVAIVFRTPPYADPSLQAPVRVSMQLRRPSDRELSEPMEFQYLPDTDDRHRIEEKRKRTYETFKSIMKKSPFNGPTEPRPPTRRIAVPTRNSTSVPKPAPQPYTFPASLSTINFDEFSPMLLPSGQISNQALALAPSSAPVLAQTMVPSSAMVPLAQPPAPAPVLTPGPPQSLSAPVPKSTQAGEGTLSEALLHLQFDADEDLGALLGNSTDPGVFTDLASVDNSEFQQLLNQGVSMSHSTAEPMLMEYPEAITRLVTGSQRPPDPAPTPLGTSGLPNGLSGDEDFSSIADMDFSALLSQISS
Take B1: in assay [1], the binding entry is given as “binds”.

B2: caspase-1 (enzyme, UniProt P29452 1-402)
chain: MADKILRAKRKQFINSVSIGTINGLLDELLEKRVLNQEEMDKIKLANITAMDKARDLCDHVSKKGPQASQIFITYICNEDCYLAGILELQSAPSAETFVATEDSKGGHPSSSETKEEQNKEDGTFPGLTGTLKFCPLEKAQKLWKENPSEIYPIMNTTTRTRLALIICNTEFQHLSPRVGAQVDLREMKLLLEDLGYTVKVKENLTALEMVKEVKEFAACPEHKTSDSTFLVFMSHGIQEGICGTTYSNEVSDILKVDTIFQMMNTLKCPSLKDKPKVIIIQACRGEKQGVVLLKDSVRDSEEDFLTDAIFEDDGIKKAHIEKDFIAFCSSTPDNVSWRHPVRGSLFIESLIKHMKEYAWSCDLEDIFRKVRFSFEQPEFRLQMPTADRVTLTKRFYLFPGH
Regarding B2, the binding result in assay [2] was “no binding”; in assay [3] it was “binds”; in assay [4], “binds”.
